Measurements reported in PubChem BioAssay AID1508588 (Peter MacCallum Cancer Centre, 2020)
Screen: 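Which gene losses make BRAF-mutant melanoma cells more responsive to vemurafenib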 (primary screen). Cells: human WM266.4 melanoma cells (BRAF V600 mutant). Reagents: siRNA pool against human genes, 40 nM. Timing: 96 h from transfection to read-out. Challenge: vemurafenib 300 nM (about IC25), added 48 h after transfection, for 48 h; comparison arm got DMSO vehicle only. Detection: 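Cell gain (DAPI nuclei at end minus before drug, mean of two replicates) and medium lactate by absorbance per cell, both as ratio to non-targeting siRNA, also grouped into fold-change classes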. Direction: cell gain with vemurafenib: higher = more cell gain than with non-targeting siRNA; lactate per cell with vemurafenib: higher = more lactate made per cell. Active means: 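a knock-down counts as enhancing when its fold-change classes with vehicle and with vemurafenib, taken together, show a stronger drug effect on cell gain or lactate per cell; exact class pairs not stated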. Calls: active = enhances vemurafenib effect; inactive = no enhancement seen.
The whole screen tested about 18,000 reagents; shown is a part drawn at random. 790 of all reagents (4.4%) were called active. 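Calls rest on a combination of fold-change classes in drug and vehicle arms, not all shown here.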

The opening 7 entries as a preview:
no.	Gene	PubChem SID	cell gain with vemurafenib	lactate per cell with vemurafenib	Outcome
1	TRAF2 (TNF receptor associated factor 2)	SID134310800	0.32	0.76	inactive
2	SLC41A3	SID135621353	0.18	1.29	inactive
3	C20orf96 (chromosome 20 open reading frame 96)	SID134319794	0.34	1.09	inactive
4	MTPN (myotrophin)	SID135623213	0.52	1.05	inactive
5	ADAT1 (adenosine deaminase tRNA specific 1)	SID134314102	0.38	0.78	inactive
6	CENPA (centromere protein A)	SID135620644	0.29	1.85	inactive
7	TEX28 (testis expressed 28)	SID134323917	0.49	0.89	inactive

Main list, from the start:
no.	Gene	PubChem SID	cell gain with vemurafenib	lactate per cell with vemurafenib	Outcome
1	TRAF2 (TNF receptor associated factor 2)	SID134310800	0.32	0.76	inactive
2	SLC41A3	SID135621353	0.18	1.29	inactive
3	C20orf96 (chromosome 20 open reading frame 96)	SID134319794	0.34	1.09	inactive
4	MTPN (myotrophin)	SID135623213	0.52	1.05	inactive
5	ADAT1 (adenosine deaminase tRNA specific 1)	SID134314102	0.38	0.78	inactive
6	CENPA (centromere protein A)	SID135620644	0.29	1.85	inactive
7	TEX28 (testis expressed 28)	SID134323917	0.49	0.89	inactive
8	SDHAF4 (succinate dehydrogenase complex assembly factor 4)	SID134319998	0.71	0.68	active
9	TEP1 (telomerase associated protein 1)	SID134316653	0.71	0.98	inactive
10	UNC13A (unc-13 homolog A)	SID152150521	0.3	1.12	inactive
11	TRIM42 (tripartite motif containing 42)	SID134312294	0.96	0.8	inactive
12	METTL26 (methyltransferase like 26)	SID135623256	0.64	0.96	inactive
13	ART4 (ADP-ribosyltransferase 4 (inactive) (Dombrock blood group))	SID152154434	1.14	0.45	inactive
14	PSRC1 (proline and serine rich coiled-coil 1)	SID135622562	0.55	0.93	inactive
15	MEOX1 (mesenchyme homeobox 1)	SID135622215	1.23	0.66	inactive
16	ARHGAP8 (Rho GTPase activating protein 8)	SID152149128	1	1.33	inactive
17	THYN1 (thymocyte nuclear protein 1)	SID134324354	-0.1	0.7	inactive
18	BICC1 (BicC family RNA binding protein 1)	SID135622425	0.69	0.9	inactive
19	RSKR (ribosomal protein S6 kinase related)	SID56478814	0.7	0.43	inactive
20	DDX39A (DExD-box helicase 39A)	SID135620906	0.62	1.34	inactive
21	MGAT4B	SID152150071	0.42	0.6	inactive
22	PCSK2 (proprotein convertase subtilisin/kexin type 2)	SID134311411	-0.15	3.98	inactive
23	ZNF568 (zinc finger protein 568)	SID152155153	0.28	1.23	inactive
24	RALB (RAS like proto-oncogene B)	SID134313277	0.47	0.92	inactive
25	SCRT1 (scratch family transcriptional repressor 1)	SID152152850	0.16	1.32	inactive
26	COL4A1 (collagen type IV alpha 1 chain)	SID135622160	0.93	0.62	inactive
27	FAM90A1 (family with sequence similarity 90 member A1)	SID152155034	0.96	1.03	inactive
28	EGR2 (early growth response 2)	SID134311851	0.5	0.86	inactive
29	IL20 (interleukin 20)	SID152151966	1	0.62	inactive
30	PMS1 (PMS1 homolog 1, mismatch repair system component)	SID152147694	0.59	0.66	inactive
31	SLC26A10P	SID135621386	0.84	0.5	inactive
32	DAO (D-amino acid oxidase)	SID152152618	0.47	0.86	inactive
33	CHIA (chitinase acidic)	SID152151173	0.34	1.06	inactive
34	CYP2S1 (cytochrome P450 family 2 subfamily S member 1)	SID152148008	0.35	0.8	inactive
35	ESR2 (estrogen receptor 2)	SID152151592	0.99	0.84	inactive
36	PALD1 (phosphatase domain containing paladin 1)	SID152153152	0.67	0.55	inactive
37	PLA2G6 (phospholipase A2 group VI)	SID135621706	0.28	1.1	inactive
38	PNMA8B (PNMA family member 8B)	SID152151059	0.34	1.63	inactive
39	FNDC9 (fibronectin type III domain containing 9)	SID135625117	0.09	2.04	inactive
40	CCL28 (C-C motif chemokine ligand 28)	SID135621452	0.87	0.68	inactive
41	FAM135B (family with sequence similarity 135 member B)	SID152155671	0.47	1.86	inactive
42	IRF6 (interferon regulatory factor 6)	SID135622275	0.6	0.52	inactive
43	TNMD (tenomodulin)	SID135622632	0.57	0.71	inactive
44	SPATA31H1 (SPATA31 subfamily H member 1)	SID152156200	0.18	1.37	inactive
45	HSPA9 (heat shock protein family A (Hsp70) member 9)	SID152150796	0.34	2.5	inactive
46	OLIG3 (oligodendrocyte transcription factor 3)	SID134313839	0.46	1.33	inactive
47	SEZ6L (seizure related 6 homolog like)	SID152148925	0.59	0.54	inactive
48	EPHA7 (EPH receptor A7)	SID152149990	0.44	1.4	inactive
49	RIPK4 (receptor interacting serine/threonine kinase 4)	SID135620968	0.8	0.52	inactive
50	STXBP3 (syntaxin binding protein 3)	SID135623791	0.32	0.66	inactive
51	IBA57 (iron-sulfur cluster assembly factor IBA57)	SID152153729	0.24	1.93	inactive
52	VOPP1 (VOPP1 WW domain binding protein)	SID152149774	0.55	0.87	inactive
53	ANKRD17 (ankyrin repeat domain 17)	SID135622555	0.26	1.56	inactive
54	CNTF (ciliary neurotrophic factor)	SID134315483	0.75	0.99	inactive
55	CDCA7 (cell division cycle associated 7)	SID152149106	0.57	1.4	inactive
56	CCDC107 (coiled-coil domain containing 107)	SID134321711	0.28	1.54	inactive
57	WDR19 (WD repeat domain 19)	SID135623083	0.55	1.47	inactive
